# Assay results taken from PubChem BioAssay AID504327 (National Center for Advancing Translational Sciences (NCATS), 2011).
# Chains of the proteins cited; added tags and fusions are not shown.
# UniProt Q92830, whole entry, looked up: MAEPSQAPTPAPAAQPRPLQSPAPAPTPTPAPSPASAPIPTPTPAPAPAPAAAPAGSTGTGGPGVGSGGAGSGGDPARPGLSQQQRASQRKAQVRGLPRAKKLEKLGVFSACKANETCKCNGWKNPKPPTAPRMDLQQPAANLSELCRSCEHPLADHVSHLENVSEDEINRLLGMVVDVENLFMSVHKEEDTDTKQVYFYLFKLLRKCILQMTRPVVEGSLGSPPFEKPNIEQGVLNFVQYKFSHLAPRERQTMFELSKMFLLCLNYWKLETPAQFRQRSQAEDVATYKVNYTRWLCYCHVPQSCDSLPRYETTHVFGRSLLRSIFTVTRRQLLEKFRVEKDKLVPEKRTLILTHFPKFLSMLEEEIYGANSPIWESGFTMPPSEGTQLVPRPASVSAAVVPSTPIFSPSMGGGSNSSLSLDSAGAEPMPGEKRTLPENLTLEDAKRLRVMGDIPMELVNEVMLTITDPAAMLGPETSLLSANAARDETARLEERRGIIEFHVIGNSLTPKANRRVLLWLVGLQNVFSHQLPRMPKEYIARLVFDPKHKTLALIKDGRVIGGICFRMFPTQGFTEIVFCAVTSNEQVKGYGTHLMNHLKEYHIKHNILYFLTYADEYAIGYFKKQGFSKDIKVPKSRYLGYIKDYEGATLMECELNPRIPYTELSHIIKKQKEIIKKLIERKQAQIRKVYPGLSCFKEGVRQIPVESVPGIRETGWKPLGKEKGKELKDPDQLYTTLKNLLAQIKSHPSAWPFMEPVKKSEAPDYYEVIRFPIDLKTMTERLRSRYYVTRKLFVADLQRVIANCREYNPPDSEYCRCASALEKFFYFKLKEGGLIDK
# Where “and” joins values, the source holds several entries; their conditions need not be identical. Identical values can stand only once. Hit rate of the full screen: of about 390,000 compounds, about 820 (0.21%) were called active. Inconclusive results, whose numbers are uncertain, are shown with a selection of clear calls. Calls come from the whole dose curve; as a rule, active = well fitted inhibition curve with a large enough effect; inconclusive = small, poorly fitted or top-dose-only effect, or another doubt; inactive = no such curve, though single readings can be large or run the other way. Where the call is inconclusive, the potency comes from a doubtful curve fit.
# Molecular target: Histone acetyltransferase KAT2A (Homo sapiens) (UniProt Q92830)
# Assay: qHTS Assay for Inhibitors of GCN5L2
# Conditions: GCN5L2 HAT assay, ThioGlo1 CoA-SH fluorescence; activity change, negative = inhibition: at 58.9 µM (top of the series) unless noted
# Outline: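 qHTS, 1536-well. 20nM enzyme, pH 7.5 HEPES/EDTA/Tween-20 buffer; 15 min compound preinc., RT. Start: 75uM H3(1-25), 70uM AcCoA, 50uM ThioGlo1. Read Ex340/Em540 at t=0 (autofluorescence flag) and t=20 min.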
# % is set by controls: 0 for no effect and ±100 for the full control effect; potency is the fitted concentration of half-maximal effect.
SMILES,Potency,"activity change, negative = inhibition"
CCOc1ccc(NC(=O)c2cccc(-n3cccc3)c2)cc1S(=O)(=O)N1CCOCC1,"inconclusive: 17.8 µM [inhibitor, partial curve]",
CCOC(=O)C1=C(CN2CCC(C)CC2)NC(=O)NC1c1ccc(OC(C)C)cc1 (centres undefined),inactive,
CC1CCN(S(=O)(=O)c2ccc(NC(=O)Cc3ccc(S(=O)(=O)N4CCOCC4)s3)cc2)CC1,"inconclusive: 22.4 µM [inhibitor, single point]",
O=C(Cn1c(=O)oc2ccccc21)Nc1n[nH]c(=S)s1,"inconclusive: 3.55 µM [inhibitor, full curve]",
CC(=O)Nc1ccccc1C(=O)C(=O)Nc1ccc(C(=O)N2CCOCC2)cc1,"inconclusive: 0.891 µM [inhibitor, single point]",
CCC(C)n1c(SCC(=O)Nc2ccccc2C(=O)OC)nc2ccsc2c1=O (centres undefined),inactive,
CCCCC/C=C/C=C1/C(=O)C=C[C@@H]1C/C=C\CCCC(=O)O,"inconclusive: 15.8 µM [inhibitor, partial curve]",
CCCCc1c(CCC)c(=N)c2ccccc2n1C,"inconclusive: 25.1 µM [inhibitor, single point]",
Cc1occc1C(=O)Nc1cccc([N+](=O)[O-])c1C,"inconclusive: 8.91 µM [inhibitor, single point]",
COc1ccc(N(C(=O)c2ccco2)C(C(=O)NC2CCCC2)c2ccc(N(C)C)cc2)cc1 (centres undefined),"inconclusive: 39.8 µM [inhibitor, single point]",
CCN(CC)Cc1c(O)ccc2c(=O)c(-c3ccccc3)coc12,"inconclusive: 31.6 µM [inhibitor, single point]",
COc1ccc(N2CC(C(=O)NCCCN3CCOCC3)CC2=O)cc1 (centres undefined),"inconclusive: 0.447 µM [inhibitor, full curve, poor fit]",
CN1CCc2cc(O)c(O)cc2C1Cc1ccc(O)c(O)c1 (centres undefined),inactive,
N#C/C(=N\Nc1ccccc1)C(N)=S,"inconclusive: 28.2 µM [inhibitor, partial curve]",
Cc1c(NC(=O)c2ccc(CC(C)C)o2)c(=O)n(-c2ccccc2)n1C,inactive,
O=C(N/N=C/c1ccc(-c2ccc(S(=O)(=O)Nc3ncccn3)cc2)o1)c1cc2ccccc2cc1O,"inconclusive: 15.8 µM [inhibitor, partial curve]",
CC1CCCCN1CCNC(=O)c1ccc(Cn2c(SCc3ccccc3)nc3cccnc32)cc1 (centres undefined),inactive,
Fc1ccc(NC(=S)N2N=CCC2c2ccccc2)cc1 (centres undefined),,inconclusive: -30.8% [inhibitor]
CS(=O)(=O)NN1C(=O)c2ccccc2NC1c1c[nH]c2ccccc12 (centres undefined),inactive,
NC(=O)c1c(NC(=O)Cc2ccccc2)sc2c1CCN(Cc1ccccc1)C2,"inconclusive: 1.12 µM [inhibitor, full curve]",
COc1cccc(/C=C(/C#N)c2ccc(F)cc2)c1OCc1cccc(C(=O)O)c1,inactive,
CCc1cc2c(=O)c(Oc3ccccc3F)c(C)oc2c(CN(C)C)c1O,"inconclusive: 14.1 µM [inhibitor, partial curve]",
Cn1cc(/C=C/C(=O)N2CCCC(C(=O)c3ccc(C(C)(C)C)cc3)C2)cn1 (centres undefined),"inconclusive: 39.8 µM [inhibitor, single point]",

SMILES,Potency,"activity change, negative = inhibition"
CCCNC(=O)c1csc(Nc2cccc3ccccc23)n1,"inconclusive: 0.141 µM [inhibitor, full curve, poor fit]",
Cn1cc(S(=O)(=O)N2CCOCC2)cc1C(=O)Nc1cccc(Cl)c1,inactive,
CCOc1ccc(C(=O)COC(C)=O)cc1,inactive,
Cn1cc(/C=C2/SC(=O)N(CC(=O)Nc3ccc4c(c3)OCO4)C2=O)c2ccccc21,"inconclusive: 6.31 µM [inhibitor, single point]",
CC(=O)Nc1ccc2c(c1)N(S(=O)(=O)c1cccs1)CCC2,"inconclusive: 14.1 µM [inhibitor, partial curve]",
N[C@H](Cc1c[nH]c2ccccc12)C(=O)O,"inconclusive: 20 µM [inhibitor, single point]",
C[C@@H](CN1C2=NC[C@H](Cc3ccccc3)N2C[C@H]1Cc1ccc(O)cc1)NC(=O)CCC1CCCCC1,inactive,
CC(C)CCOc1cccc(OCC(=O)NC2CCS(=O)(=O)C2)c1 (centres undefined),"inconclusive: 25.1 µM [inhibitor, partial curve, poor fit]",
CC[C@]12c3[nH]c4ccccc4c3CCN1C(=O)C(CC(=O)NC/C=C(\C)CCC=C(C)C)C[C@@H]2C(=O)N1CCN(C(=O)c2ccco2)CC1 (some centres undefined),inactive,
COc1ccccc1CNS(=O)(=O)c1ccc(Cl)s1,inactive,
COc1ccc(C(=O)/C=C/Sc2nc3ccccc3o2)cc1,inactive,
COc1ccc(C(=O)N/N=C\c2ccc(OC)c(COc3ccccc3Br)c2)c(OC)c1,"inconclusive: 1.12 µM [inhibitor, full curve, poor fit]",
COCCCNC(=O)c1c(NC(=O)Cc2coc3cc(C)ccc23)sc2c1CCCC2,inactive,
Cc1ccc(NS(=O)(=O)c2ccc(C(=O)NCc3cccnc3)cc2)cc1,inactive,
C=CC(C)(C)c1[nH]c2ccccc2c1C1=C(O)C(=O)C(c2c[nH]c3c(CC=C(C)C)cccc23)=C(O)C1=O,active: 15.8 µM,
COc1cc(C(=O)Nc2nc(OC)c(-c3ccccc3)c(OC)n2)cc(OC)c1OC,inactive,
Cc1ccc2c(c1)c(N=O)c(O)n2Cc1ccc(Cl)cc1,inactive,
CC(CSc1nc2ccccc2s1)Cn1c(N2CCCC2)nc2c1c(=O)[nH]c(=O)n2C (centres undefined),inactive,
O=C1OCCN1C(=O)[C@H]1[C@H](c2ccc(Cl)cc2)C(c2ccc(F)cc2)=NN1c1ccccc1,"inconclusive: 22.4 µM [inhibitor, partial curve] and inconclusive: 31.6 µM [inhibitor, single point]",
O=C(CN1CCN(c2ncccn2)CC1)NCCC1=CCCCC1,"inconclusive: 1 µM [inhibitor, single point]",
CC(NC(=O)CC1CCCCC1)c1ccccc1 (centres undefined),"inconclusive: 0.501 µM [inhibitor, single point]",
N#CCCn1c(=O)cnc2cnc(N3CCNCC3)nc21,"inconclusive: 39.8 µM [inhibitor, single point]",
CN(CC(=O)Nc1cccc(F)c1)C(=O)c1cccc(S(=O)(=O)N2CC3(C)CC2CC(C)(C)C3)c1 (centres undefined),"inconclusive: 0.708 µM [inhibitor, partial curve, poor fit]",

SMILES,Potency,"activity change, negative = inhibition"
CCC(Oc1ccccc1C)C(=O)N1CCCN(C)CC1 (centres undefined),"inconclusive: 4.47 µM [inhibitor, full curve, poor fit]",
O=C(N/N=C/c1ccccc1)C1CCCN1C(=O)c1cc([N+](=O)[O-])cc([N+](=O)[O-])c1 (centres undefined),"inconclusive: 7.94 µM [inhibitor, single point]",
COc1coc(C(O)CN)cc1=O (centres undefined),inactive,
COc1ccc2nc(NC(=O)c3ccc4ncsc4c3)sc2c1,"inconclusive: 39.8 µM [inhibitor, single point]",
O=C(Nc1ccccc1)c1nc[nH]c1C(=O)NCCCNC(=O)c1[nH]cnc1C(=O)Nc1ccccc1,inactive,
Cc1cccc(CNC(=O)c2ccc3c(c2)N(C)CCS3)c1,"inconclusive: 5.62 µM [inhibitor, full curve, poor fit]",
C[C@@H](CN=[N+]=[N-])CN1CC[C@H](O)CCC1=O,"inconclusive: 14.1 µM [inhibitor, partial curve]",
CN(C)S(=O)(=O)c1cccc(NC(=S)NNC(=O)c2cc3ccccc3cc2O)c1,"inconclusive: 31.6 µM [inhibitor, single point]",
Cc1ccc(CC(=O)O/N=C(\N)c2ccncc2)cc1,"inconclusive: 0.1 µM [inhibitor, full curve, poor fit]",
CCCNC(=O)c1ccc2nc(CCc3ccccc3)oc2c1,inactive,
NC(=O)CN(c1ccc(Oc2ccccc2)cc1)S(=O)(=O)c1ccccc1,"inconclusive: 5.62 µM [inhibitor, full curve, poor fit]",
O=[N+]([O-])c1ccccc1/C=N/n1c(C(F)(F)F)n[nH]c1=S,inactive,
CCOc1ccccc1C(=O)NCC(=O)OCCOc1cccc(Cl)c1,"inconclusive: 0.1 µM [inhibitor, full curve, poor fit]",
CC(C)c1ccc(S(=O)(=O)/N=C2/C=CC(=O)c3ccccc32)cc1,inactive,
Cc1ccc(C)c(Cn2cc(S(=O)(=O)c3ccc(Cl)cc3)c(=O)c3cc(F)ccc32)c1,inactive,
O=C(CSc1nnnn1-c1cccc2c1CCCC2)NC1CCCC1,"inconclusive: 39.8 µM [inhibitor, single point]",
O=C(Nc1cccc(F)c1)N1CCCC2(CCN(C(=O)c3cc(C(F)(F)F)cc(C(F)(F)F)c3)CC2)C1,inactive,
Cc1ccc(NC(=O)CSc2nnc(-c3ccco3)c(-c3ccco3)n2)cc1,"inconclusive: 31.6 µM [inhibitor, single point]",
COc1cc2[nH]c(-c3ccc(C)cc3)cc(=O)c2cc1OC,inactive,
CC(C)(C)c1ccc(-c2nc(SCCCOc3ccccc3)n3[nH]c(=O)cc3n2)cc1,"inconclusive: 39.8 µM [inhibitor, single point]",
COc1ccc(-c2cc(=O)c3cc(C)ccc3[nH]2)cc1,"inconclusive: 70.8 µM [inhibitor, single point]",
Cc1oc2c(C)c3oc(=O)c(CCC(=O)N[C@@H](CC(C)C)C(=O)O)c(C)c3cc2c1C,"inconclusive: 11.2 µM [inhibitor, partial curve]",
CCOc1ccc2[nH]c(=O)c(CN(Cc3nnnn3Cc3ccco3)C3CCCCC3)cc2c1,"inconclusive: 28.2 µM [inhibitor, partial curve]",
